Assay results published in patent publication US20040198821A1, “Reduction of hair growth” (priority 2002, published 2004).
For at least one compound, name, drawing or mass did not settle the structure.

System: Carnitine palmitoyltransferase I (CPT I)
Experiment: Assay of carnitine palmitoyl transferase-I (CPT-I), Method II (isolated mitochondrial fraction)
Assay type: biochemical, hamster
Settings: inhibitor 50 mM
Method: The enzyme activity of carnitine palmitoyl transferase-I (CPT-I) was also determined in the isolated mitochondrial fraction. Isolation of mitochondria from the hair follicle rich fraction of flank organs was accomplished by conventional differential centriftigation in 0.25 M sucrose, 10 mM Tris-HCl, pH 7.4 and 1 mM EDTA after tissues were homogenized by polytron homogenizer and Dounce tissue grinder. The pellet obtained at 7000 g was washed two times and finally suspended at 40-80 mg/ml. Carnitine palmitoyltransferase was measured as the rate of conversion of palmitoyl-CoA and [^3H]CH3-L-carnitine into palmitoyl-[^3H]CH3-1-carnitine. The incubation mixture initially contained 12.5 μmol of Tris-HCl (pH 7.2), 15 μmol of KCl, 3.1 μmol of KCN, 6.2 μmol of glutathione, 15 nmol of CoA, […], 2 μmol of ATP (pH 6.8) in volume of 0.425 ml. To this mixture 50 μl of mitochondria were added, followed by preincubation at 37° C. for 10 minutes in the presence or absence of the enzyme inhibitor methyl palmoxirate (dissolved in DMSO). After preincubation, the enzyme reaction was initiated by the addition of 25 μl of 2 mM palmitoyl-CoA and 25 μl of 4 mM [^3H]CH3-L-carnitine. The reaction was stopped after 30 minutes with 1 ml 1N HCl and palmitoyl-[^3H]CH3-L-carnitine was extracted into n-butanol. The radioactivity was determined using scintillation spectrometry.

CCCCCCCCCCCCCCC1(C(=O)OC)CO1 (centres unmarked) [methyl palmoxirate, methyl-2-tetradecylglycidate]
% inhibition of CPT I: 92.3%
pmol product/mg protein (CPT I activity): 0.146 pmol product/mg protein
